Not every detail of the peptide structures is certain; ends, links or a residue may be inferred. No end group written: not given here.
Test system: tMCAO model (ischemia for 4 hours), tPA-induced motor dysfunction
Experiment: tMCAO for four hours with tPA: clinical score and mortality after a day
Format: in vivo, mouse
Details: for tPA-induced exacerbation of motor dysfunction: 10 mg/kg peptide coadministered i.v. with tPA, 24 hours after ischemia
Procedure: After tMCAO for four hours, the clinical score and mortality rate were evaluated after a day (FIG. 8). […] The tMCAO for four hours corresponds to the state after 3 hours from the onset of ischemic diseases.
To evaluate the degree of motor function disorders associated with cerebral ischemia, the neurological scores (Clinical Scores) according to the following definition were used. In addition, two grade evaluation was carried out using numerical values 1 to 4 (when scores 1 and 2 were shown, 1.5 was used).
1: motor function disorders of the right front limb, 2: one-directional behavior, 3: unable to hold the position and incline, 4: disappearance of spontaneous movement, and 5: death.

## NEVDEE [Peptide P6, NEVDEE]
1 mg/kg P6 in combination with 10 mg/kg tPA
  tPA-induced motor dysfunction: significantly inhibited
tPA and P6 1 mg/kg in combination
  mortality after a day of ischemia: all mice existed

## NEVDQE [Peptide A, NEVDQE]
  tPA-induced exacerbation of motor dysfunction: significantly inhibited
Peptide A-alone, 1 to 10 mg/kg intravenous administration
  protective effect on ischemia for 4 hours (clinical score): did not show a significant protective effect

## NEVEEE [Peptide C, NEVEEE]
  tPA-induced exacerbation of motor dysfunction: did not show effects on any side effects

— patent publication US9617324B2, “Ameliorating agent for blood-brain barrier dysfunction” (Nagasaki University, priority 2012, dated 2017)
